Measured values as given in the supplement of paper PMC10689618.
Structures can show the parent of a compound that is named as a salt. The list shows a part of the results. Single values are uncertain, as repeats are few or missing.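 Primary human fetal astrocytes engulfed labelled rat cortical synaptosomes, measured as a red/green ratio corrected for calcein live-cell signal and scaled to the plate median. Toxicity meant calcein falling over 30%; decreased phagocytosis meant below 70% of median above 5 µM.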

System: Human fetal astrocytes
Assay: synaptosome phagocytosis (pHrodo/calcein intensity ratio) relative to plate median of data wells; higher = more phagocytosis
Conditions: 1.39 µM; 24 h

Going from Brc1ccc([C@H]2CN3CCSC3=N2)cc1 [S(-)-p-Bromotetramisole oxalate] to C=C[C@H]1CN2CC[C@H]1C[C@H]2[C@H](O)c1ccnc2ccc(OC)cc12 [Quinine sulfate], the synaptosome phagocytosis falls from 117% to 92.3%.

First: CN1C2CCC1CC(NC(=O)c1nn(C)c3ccccc13)C2 (stereo not given) [LY-278,584 maleate]
Second: CNC(=O)c1cc2c(cn1)[nH]c1ccccc12 [N-Methyl-beta-carboline-3-carboxamide]
The synaptosome phagocytosis of the first is lower: 101% for the first, 104% for the second.

First: NCCCCCCCCCCN [1,10-Diaminodecane]
Second: CCCCCCCCCC(=O)NC(CN1CCOCC1)[C@H](O)c1ccccc1 (mixture of isomers)
The synaptosome phagocytosis of the first is lower: 94.7% for the first, 110% for the second.

First: Cl.N[C@@H](CCC(=O)O)C(=O)O [L-Glutamic acid hydrochloride]
Second: NC(=O)OCC(COC(N)=O)c1ccccc1 [Felbamate]
The synaptosome phagocytosis of the first is higher: 107% for the first, 89.3% for the second.

Compared with CCC(=O)c1ccc2c(c1)N(CCCN(C)C)c1ccccc1S2 [Propionylpromazine hydrochloride], COC1(C2=NCCN2)COc2ccccc2O1 (stereo not given) is lower in synaptosome phagocytosis: 99.9% for the first, 81.3% for the second.

COc1cc2c(cc1OC)-c1c/c(=N\c3c(C)cc(C)cc3C)n(C)c(=O)n1CC2 [Trequinsin hydrochloride] showed a synaptosome phagocytosis of 109%.

Same assay, conditions: 2.78 µM; 24 h

First: Cc1cc2c(cc1Cl)N(C(=O)Nc1cccc3ncccc13)CC2
Second: CN1CCN(CCCN2c3ccccc3Sc3ccc(Cl)cc32)CC1 [Prochlorperazine dimaleate]
The synaptosome phagocytosis of the first is higher: 114% for the first, 104% for the second.

Going from CNCC[C@@H](Oc1ccccc1C)c1ccccc1 [Tomoxetine] to CNCC[C@H](Oc1ccc(C(F)(F)F)cc1)c1ccccc1 [S-(+)-Fluoxetine hydrochloride], the synaptosome phagocytosis falls from 97.9% to 92.8%.

Going from CCSC(N)=Nc1ccc(C(F)(F)F)cc1 [TFPI hydrochloride] to N=C(N)SCCc1ccc(CCSC(=N)N)cc1 [1,4-PBIT dihydrobromide], the synaptosome phagocytosis falls from 123% to 112%.

Going from NCCCCNS(=O)(=O)c1ccc2c(Cl)cccc2c1 to CC(CCc1ccc(O)cc1)NCCc1ccc(O)c(O)c1 (stereo not given) [Dobutamine hydrochloride], the synaptosome phagocytosis rises from 90.3% to 98.1%.

Going from CC1CCN(CC[C@H]2CCCN2S(=O)(=O)c2cccc(O)c2)CC1 to COc1ccccc1N1CCN(CCN2C(=O)CC3(CCCC3)CC2=O)CC1 [BMY 7378 dihydrochloride], the synaptosome phagocytosis rises from 73.9% to 98.5%.

First: OC[C@H]1O[C@@H](n2cnc3c(Nc4ccccc4)ncnc32)[C@H](O)[C@@H]1O [N6-Phenyladenosine]
Second: Nc1nc(Cl)nc2c1ncn2[C@@H]1O[C@H](CO)[C@@H](O)[C@H]1O [2-Chloroadenosine]
The synaptosome phagocytosis of the first is lower: 100% for the first, 109% for the second.

Compared with C#C[C@]1(O)CC[C@H]2[C@@H]3CCC4=Cc5oncc5C[C@]4(C)[C@H]3CC[C@@]21C [Danazol], CC(C)(C)[C@]1(O)CCN2C[C@H]3c4ccccc4CCc4cccc(c43)[C@@H]2C1 [(+)-Butaclamol hydrochloride] is lower in synaptosome phagocytosis: 126% for the first, 109% for the second.

First: N#C/C(=C\c1ccc(O)c(O)c1)C(=O)c1ccc(O)c(O)c1 [Tyrphostin AG 538]
Second: N#C/C(=C\c1ccc(O)c(O)c1)C(=O)Nc1ccccc1 [Tyrphostin AG 494]
The synaptosome phagocytosis of the first is higher: 122% for the first, 101% for the second.

Going from NCC(O)c1ccc(O)c(O)c1 (racemic) [(±)-Norepinephrine (+)bitartrate] to NC/C=C/C(=O)O [(E)-4-amino-2-butenoic acid], the synaptosome phagocytosis rises from 95.1% to 109%.

Going from CCOC(=O)c1cnc2c(cnn2CC)c1NN=C(C)C [Etazolate hydrochloride] to CCn1nc(C(=O)O)c(=O)c2cc3c(cc21)OCO3 [Cinoxacin], the synaptosome phagocytosis rises from 80.1% to 88.1%.

Going from CCCCCC(O)CCCC(=O)O (stereo not given) [5-hydroxydecanoic acid sodium] to CC(=O)NC(C(=O)O)C(C)(C)SN=O (stereo not given) [S-Nitroso-N-acetylpenicillamine], the synaptosome phagocytosis rises from 99.6% to 102%.

First: CC(C)C1C2CCC(C2)C1N (stereo not given)
Second: CN1[C@@H]2CC[C@H]1CC(OC(=O)c1c[nH]c3ccccc13)C2 (stereo not given in full) [3-Tropanyl-indole-3-carboxylate hydrochloride]
The synaptosome phagocytosis of the first is lower: 64.6% for the first, 99.1% for the second.

Compared with CC1(C)CCC2=C(O1)c1ccccc1C(=O)C2=O [beta-Lapachone], CN(C)c1ccc(/C=C2/C(=O)Nc3ccccc32)cc1 is higher in synaptosome phagocytosis: 94.1% for the first, 107% for the second.

First: Brc1c(NC2=NCCN2)ccc2nccnc12
Second: CC[N+](C)(C)Cc1ccccc1Br [Bretylium tosylate]
The synaptosome phagocytosis of the first is higher: 118% for the first, 106% for the second.

O=C1NC(=O)C(c2ccccc2)(c2ccccc2)N1 [5,5-Diphenylhydantoin] was tested, and the synaptosome phagocytosis was 105%.
